# “And” between values parts separate entries of the source, which are not always exact repeats. Equal values may be shown once. Hit rate of the full screen: of about 400,000 compounds, about 5,500 (1.4%) were called active. The inconclusive results got no clear call from the source; some entries with a clear call stand among them for comparison. The call rests on the fitted dose curve; in most records, active means well fitted cell-killing curve with a large enough effect; inconclusive means small, poorly fitted or top-dose-only effect, or effect the other way; inactive means flat fitted curve, though single readings scatter. Potencies beside an inconclusive call are fits to weak or partial responses and may not hold up.
# Assay: qHTS assay for MDR1-selective chemotherapeutics: Primary screen using the parental adenocarcinoma cell KB-3-1; further: nearly all actives have a fitted effect of over 60% in size
# Conditions: KB-3-1 viability, CellTiter-Glo ATP luminescence, 72 h; activity change, negative = cytotoxic: at 46.1 µM (top of the series)
# Summary of the method: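 KB-3-1 cells, DMEM (no phenol red) + 10% FBS; compound by pin transfer, 72 h, 37 °C. Readout: CellTiter-Glo luminescence after 10 min. Data normalized, curve-fitted.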
# On the % scale 0 is the no-effect control and ±100 the full control effect; potency means the concentration at half of the fitted maximal effect.
SMILES,Potency,"activity change, negative = cytotoxic"
Cc1nn(-c2ccc(F)cc2)c(Cl)c1C(=O)OC(C)C(=O)N(C)C1CCCCC1 (stereo not drawn),"inconclusive: 23.1 µM [cytotoxic, single point]",–
CC1CCCCN1CC(=O)N1CCCc2c1c(=O)oc1ccc(OCc3ccccc3)cc21 (stereo not drawn),–,inactive: -3.44%
CNc1nc(NCc2ccccc2)c2ccccc2n1,"inconclusive: 32.6 µM [cytotoxic, single point]",–
C[C@H](CO)N1C[C@H](C)[C@@H](CN(C)C(=O)Nc2ccc(C(F)(F)F)cc2)Oc2c(NC(=O)Nc3ccc(C(F)(F)F)cc3)cccc2C1=O,active: 16.4 µM,–
COc1cccc(NC(=O)CN(c2ccc([N+](=O)[O-])cc2)S(=O)(=O)c2ccccc2)c1,–,inactive: 2.75%
CC(C)(C)C(=O)NNC(=O)c1cc(C(C)(C)C)nn1Cc1ccccc1,"inconclusive: 29.1 µM [cytotoxic, single point]",–
CCOc1ccc(S(=O)(=O)NCc2ccncc2)cc1,active: 0.82 µM,–
Cc1cc(C)nc(NC(=NCCc2c[nH]c3ccccc23)NC(=O)c2ccco2)n1,"inconclusive: 16.4 µM [cytotoxic, single point]",–
CCCNC(=O)c1ccc2c(=O)c(O)c(-c3ccc(OC)cc3)[nH]c2c1,"inconclusive: 8.2 µM [cytotoxic, partial curve]",–
Cc1ccccc1-c1cc(=O)c2ccccc2o1,"inconclusive: 25.9 µM [cytotoxic, single point]",–
Cc1ccccc1-c1ccc(C(=O)NCc2ccccc2)o1,–,inactive: 19.8%
O=C(Cc1cccc2ccccc12)Nc1ccccc1C(=O)O,"inconclusive: 23.1 µM [cytotoxic, single point]",–
CCCN(CCC)C(=O)Cn1ccc(=N)c2ccccc21,"inconclusive: 29.1 µM [cytotoxic, single point]",–
CC(C)C[C@H]1CN([C@@H](Cc2ccccc2)CN2CCCC2CN2C(=S)NC[C@@H]2Cc2ccccc2)C(=S)N1CC1CCCCC1 (stereo partly drawn),"inconclusive: 20.6 µM [cytotoxic, partial curve, poor fit]",–
Cc1cc(Br)cn2c(Cc3cccc(F)c3)c(-c3ccc(C#N)cc3)nc12,"inconclusive: 18.4 µM [cytotoxic, partial curve]",–
CCn1c(SCC(=O)N2CCCc3ccccc32)nnc1-c1ccco1,–,inactive: -1.35%
CSc1cccc(NS(=O)(=O)c2ccc(-c3coc(C)n3)cc2)c1,"inconclusive: 29.1 µM [cytotoxic, partial curve, poor fit]",–
COc1ccc(CNc2cc(C)nc3ncnn23)c(OC)c1,"inconclusive: 2.31 µM [cytotoxic, full curve]",–
CCN(CC)c1ccc(/C=N/n2nnnc2N)c(O)c1,active: 16.4 µM,–
O=C(COc1ccc(S(=O)(=O)NC2CCCCC2)cc1)N1CCN(c2ccc(F)cc2)CC1,active: 16.4 µM,–
COc1cccc(NC(=O)CSC2=Nc3ccccc3C3=NC(CCC(=O)NCc4ccco4)C(=O)N23)c1 (stereo not drawn),–,inactive: -16.3%
O=C(Nc1ccc2c(c1)OCCO2)C(c1ccnc2ccccc12)N1CCN(C/C=C/c2ccccc2)CC1 (stereo not drawn),"inconclusive: 29.1 µM [cytotoxic, single point]",–
CN(C)S(=O)(=O)c1cccc(NC(=O)c2ccc(Sc3nncn3C)c([N+](=O)[O-])c2)c1,–,inactive: 6.74%

SMILES,Potency,"activity change, negative = cytotoxic"
Cc1csc(=O)n1CC(=O)OCC(=O)c1ccc(Br)cc1,–,inactive: 6.47%
CC(Oc1ccc(Br)cc1)C(=O)NC1CCN(Cc2ccccc2)CC1 (stereo not drawn),"inconclusive: 29.1 µM [cytotoxic, single point]",–
Cc1ccc(C)c(S(=O)(=O)N2CCC(c3nc4c(nnn4Cc4ccc(F)cc4)c(=O)[nH]3)CC2)c1,"inconclusive: 29.1 µM [cytotoxic, single point]",–
CCOc1ccc(-n2c(-c3ccc(OC)cc3)c[n+]3c2CCCCC3)cc1,active: 2.06 µM,–
CCOC(=O)CNC(=O)CNC(=O)c1nn(-c2ccc(OC)c(Cl)c2)c(=O)c2ccccc12,"inconclusive: 0.0073 µM [cytotoxic, full curve, poor fit]",–
C[n+]1ccccc1/C=C/c1cc(Br)ccc1O,"inconclusive: 3.66 µM [cytotoxic, partial curve, poor fit]",–
Cc1cc(Br)ccc1NC(=O)CN(C)C(=O)CSCc1ccccc1,–,inactive: 0%
Cc1ccc2nc3c(cc(C(=O)NC4CCCCC4)c(=N)n3C3CCCCC3)c(=O)n2c1,"inconclusive: 29.1 µM [cytotoxic, single point]",–
Cc1ccccc1OCC(=O)N/N=C/c1ccc(N2CCOCC2)o1,"inconclusive: 13 µM [cytotoxic, partial curve]",–
CCOC(=O)c1cccc(Nc2ccc3cc(S(=O)(=O)N4CCCCC4)ccc3n2)c1,"inconclusive: 29.1 µM [cytotoxic, single point]",–
O=C(NNC(=O)c1ccc(Oc2ccc(C3SCCS3)cc2)o1)c1ccc(Cl)cc1,"inconclusive: 29.1 µM [cytotoxic, single point]",–
O=C1C(c2ccccc2)=[N+]([O-])c2ccccc21,"inconclusive: 20.6 µM [cytotoxic, single point]",–
Cc1ccc(S(=O)(=O)NCc2ccc(N3CCN(C(=O)OC(C)(C)C)CC3)cc2)cc1,"inconclusive: 29.1 µM [cytotoxic, single point]",–
COc1cc(-c2noc(C)c2/C=C/c2cccc([N+](=O)[O-])c2)cc(OC)c1OC,active: 82 nM and active: 2.91 µM,–
O=C(Nc1cccc(Cl)c1)c1csnn1,–,inactive: 1.29%
Cc1ccc(S(=O)(=O)N2CCCC2)cc1C(=O)NCCOc1ccccc1,–,inactive: 2.09%
CCCCC/C(=N\NC(=O)CCC(=O)NCc1ccccc1)c1ccccc1,"inconclusive: 23.1 µM [cytotoxic, single point]",–
COc1ccc(N/C(=N/c2nc(C)cc(C)n2)NC(=O)c2ccccc2)cc1,"inconclusive: 29.1 µM [rising, single point]",–
O=c1oc2ccccc2c(Cl)c1CN1CCCCC1,"inconclusive: 25.9 µM [cytotoxic, single point]",–
COc1cccc(/C=N/Nc2nc(Nc3ccccc3)nc(-n3nc(C)cc3C)n2)c1O,active: 5.17 µM,–
CCN(CC)C(=O)Cn1cnc2sc(C(=O)NCCCN3CCOCC3)c(C)c2c1=O,"inconclusive: 29.1 µM [rising, single point]",–
NNC(=O)c1cc(C23CC4CC(CC(C4)C2)C3)nc2ccccc12,"inconclusive: 29.1 µM [cytotoxic, single point]",–
CCOC(=O)C1CCN(C(=O)c2ccc3nc(-c4ccc(OC)cc4)c(-c4ccc(OC)cc4)nc3c2)CC1,"inconclusive: 2.06 µM [cytotoxic, partial curve, poor fit]",–

SMILES,Potency,"activity change, negative = cytotoxic"
CCOC(=O)C1(C)CCN1C(=O)c1ccc(OC)c(F)c1 (stereo not drawn),–,inactive: 0%
COc1ccc(C)cc1-n1nnnc1SCC(=O)NC1CC1,–,inactive: -0.299%
Cc1sc2ncnc(N3CCC(C(=O)Nc4sc5c(c4C(N)=O)CCC(C)C5)CC3)c2c1C (stereo not drawn),"inconclusive: 29.1 µM [cytotoxic, single point]",–
Cc1ccccc1CC1SC(N=C(N)N)=NC1=O (stereo not drawn),–,inactive: -0.438%
O=C(Nc1ccc(F)cc1F)c1noc2c1CCc1ccccc1-2,–,inactive: -6.86%
N/C(=N\c1nc2c(c(=O)[nH]1)CCCC2)Nc1ccccc1Sc1ccccc1,–,inactive: -0.491%
NC(=O)c1ccc(NCC2COc3ccccc3O2)c([N+](=O)[O-])c1 (stereo not drawn),"inconclusive: 20.6 µM [cytotoxic, partial curve, poor fit]",–
CCOCCCn1c(C)nc2c[n+](CC(=O)c3ccc4ccccc4c3)cc(Br)c21,"inconclusive: 25.9 µM [cytotoxic, single point]",–
O=C(Nc1ccc([N+](=O)[O-])cn1)c1cc(-c2cccc(Cl)c2)nc2ccccc12,"inconclusive: 16.4 µM [cytotoxic, single point]",–
COc1ccc(C(C)NC(=O)C2CCN(CCOc3ccc(Cl)cc3Cl)CC2)cc1OC (stereo not drawn),"inconclusive: 29.1 µM [cytotoxic, single point]",–
Cc1ccc2[nH]c(C(=O)N/N=C/c3ccc([N+](=O)[O-])cc3)c(C)c2c1,"inconclusive: 29.1 µM [cytotoxic, single point]",–
Cc1cc(C(=O)COC(=O)COc2ccc(C#N)cc2)c(C)n1C1CC1,–,inactive: 19.9%
O=C(COc1ccc(C(=S)N2CCCC2)cc1)Nc1ccc(F)cc1,"inconclusive: 29.1 µM [cytotoxic, single point]",–
Cc1cccc(NC(=S)NC(=O)/C=C/c2ccco2)c1,active: 4.61 µM,–
CC(C)(C)c1ccc(OCC(=O)Nc2ccncc2)c(Br)c1,"inconclusive: 29.1 µM [cytotoxic, single point]",–
COc1ccc(Br)cc1CNC(=O)CN1CCSc2ccccc21,"inconclusive: 29.1 µM [cytotoxic, single point]",–
CCc1cccc2c(C(=O)CN3C(=O)NC4(CCCCCC4)C3=O)c[nH]c12,"inconclusive: 16.4 µM [cytotoxic, single point]",–
Cc1cc(C)c2c3c(sc2n1)C(=O)N(c1ccccc1)CC(=O)N3,"inconclusive: 29.1 µM [rising, partial curve, poor fit]",–
CC1CCC(NC(=O)c2cc(C3CC3)nn2-c2ccccc2)CC1 (stereo not drawn),–,inactive: -0.175%
C/C(N)=C(/C#N)C(=O)COC(=O)Cc1coc2ccc3ccccc3c12,–,inactive: -4.24%
Cc1ccc(-n2sc3ccccc3c2=O)cc1,"inconclusive: 29.1 µM [cytotoxic, single point]",–
Cc1ccc(-c2nc3ccc(C)cn3c2Cc2ccccc2C(F)(F)F)cc1,"inconclusive: 18.4 µM [cytotoxic, single point]",–

# 5 of these compounds, set out differently:
SMILES	Potency	activity change, negative = cytotoxic
O=C(Nc1ccc([N+](=O)[O-])cn1)c1cc(-c2cccc(Cl)c2)nc2ccccc12	inconclusive: 16.4 µM [cytotoxic, single point]	–
COc1ccc(C(C)NC(=O)C2CCN(CCOc3ccc(Cl)cc3Cl)CC2)cc1OC (stereo not drawn)	inconclusive: 29.1 µM [cytotoxic, single point]	–
Cc1ccc2[nH]c(C(=O)N/N=C/c3ccc([N+](=O)[O-])cc3)c(C)c2c1	inconclusive: 29.1 µM [cytotoxic, single point]	–
Cc1cc(C(=O)COC(=O)COc2ccc(C#N)cc2)c(C)n1C1CC1	–	inactive: 19.9%
O=C(COc1ccc(C(=S)N2CCCC2)cc1)Nc1ccc(F)cc1	inconclusive: 29.1 µM [cytotoxic, single point]	–
